Assay results taken from PubChem BioAssay AID1347075 (National Center for Advancing Translational Sciences (NCATS), 2019).
Hit rate of the full screen: of about 400,000 compounds, about 5,500 (1.4%) were called active. This list was built around the results that the source calls inconclusive (neither active nor inactive); the mix of calls is not that of the screen. Calls follow the shape of the dose curve; as a rule, active = well fitted cell-killing curve with a large enough effect; inconclusive = small, poorly fitted or top-dose-only effect, or effect the other way; inactive = flat fitted curve, though single readings scatter. Potencies of inconclusive entries are doubtful fits and often do not repeat.

Experiment: qHTS assay for MDR1-selective chemotherapeutics: Primary screen using the parental adenocarcinoma cell KB-3-1; also: nearly all actives have a fitted effect of over 60% in size
Details: KB-3-1 viability, CellTiter-Glo ATP luminescence, 72 h; activity change, negative = cytotoxic: at 46.1 µM (top of the series)
In short: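 72 h, 37 °C compound treatment of KB-3-1 parental cells; CellTiter-Glo added, 10 min, luminescence read. Data corrected against DMSO-only plates and normalized before curve fitting.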
% is scaled to controls: 0 for no effect and ±100 for the full control effect; potency is read from the fitted curve at half-maximal effect.

Structure (SMILES) | Potency | activity change, negative = cytotoxic
COCC(C)n1c(SCC(=O)NC(=O)Cc2ccccc2)nc2ccccc2c1=O (configuration not stated) | inactive | –
Cc1ccccc1OCCn1cc(C=O)c2ccccc21 | inconclusive: 20.6 µM [cytotoxic, single point] | –
COC(=O)c1[nH]c2ccccc2c1NC(=O)c1ccccc1[N+](=O)[O-] | inconclusive: 18.4 µM [rising, single point] | –
N=c1c2c(-c3ccccc3)c(-c3ccccc3)oc2ncn1Cc1ccco1 | inconclusive: 16.4 µM [cytotoxic, single point] | –
Cc1ccc(Cl)cc1NC(=O)C1CCCN(S(=O)(=O)c2c(C)noc2/C=C/N(C)C)C1 (configuration not stated) | inactive | –
Cc1cc(=O)c(C(=O)O)cn1Nc1ccc(F)cc1 | inactive | –
CCOC(=O)[C@]12CCC=C1N(Cc1ccc3c(c1)OCO3)C(=O)[C@H](CC(=O)NCC13CC4CC(CC(C4)C1)C3)C2 | inconclusive: 29.1 µM [cytotoxic, single point] | –
COc1ccc(-c2cc(C(F)F)n3ncc(C(=O)N4CCc5ccccc5C4)c3n2)cc1 | inactive | –
Cc1ccsc1C1Nc2ccccc2-c2nc3ccccc3n21 (configuration not stated) | inactive | –
O=C(COc1ccc(F)cc1)c1ccc2c(c1)CCCC2 | inactive | –
C[C@H](NC(=O)c1cc2cc(Cl)ccc2n1C)C(=O)N[C@@H](Cc1ccccc1)C(=O)O | – | inconclusive: -42.9%
CCCC1S/C(=N/N=C/c2ccc(C)cc2)N(Cc2ccc(OC)cc2)C1=O (configuration not stated) | inconclusive: 0.82 µM [cytotoxic, full curve] | –
NC(=S)NN=C1c2cc(OCCN3CCOCC3)ccc2-c2ccc(OCCN3CCOCC3)cc21 | active: 23.1 µM | –
C#Cc1cccc(C(=O)NC2CCCN(C3Cc4ccccc4C3)C2)c1 (configuration not stated) | inconclusive: 1.03 µM [rising, full curve] | –
CN(Cc1ccccc1)C(=O)CSc1nc2c(c(C(F)(F)F)n1)CCc1ccccc1-2 | active: 18.4 µM | –
Cc1ccc(C(C)C)c(OCC(=O)Nc2ccc(N3CCOCC3)cc2N2CCOCC2)c1 | inconclusive: 20.6 µM [cytotoxic, single point] | –
O=C(c1ccc2c(=O)n3c(nc2c1)CCCCC3)N1CCN(C(c2ccccc2)c2ccccc2)CC1 | inconclusive: 29.1 µM [cytotoxic, single point] | –
COc1ccc(C(=O)NNC(=O)C(Cc2ccc(O)cc2)NC(=O)c2ccccc2NC(=O)c2ccc(OC)cc2)cc1 (configuration not stated) | – | inconclusive: 30.1%
Cc1ccc([N+](=O)[O-])cc1NC(=S)NC(=O)c1ccco1 | inactive | –
COc1ccccc1C(=O)NC(=S)Nc1ccc(Cc2ccncc2)cc1 | inconclusive: 32.6 µM [cytotoxic, partial curve, poor fit] | –
C=CC[N+]1(CC#Cc2ccccc2)CCCC1 | – | inconclusive: -30.4% [cytotoxic]
Cn1c(C(=O)N2CCCC(C(=O)c3ccc(C(F)(F)F)cc3)C2)cc(=O)n(C)c1=O (configuration not stated) | inconclusive: 20.6 µM [rising, single point] | –
Cc1nc(-c2ccc(F)cc2)sc1CCNC(=O)C(=O)Nc1ccc2c(c1)OCO2 | inconclusive: 23.1 µM [cytotoxic, partial curve, poor fit] | –
COc1ccc(C(C)=O)cc1CN1C(=O)C(C)ON=C1c1cccc(C(F)(F)F)c1 (configuration not stated) | inactive | –

Structure (SMILES) | Potency | activity change, negative = cytotoxic
Cc1ccc(NC(=O)c2cc3cccc([N+](=O)[O-])c3[nH]2)cc1 | inactive | –
COc1cc2nc(N(CCCN(C)C)C(=O)c3ccc(S(=O)(=O)N4CCc5ccccc5C4)cc3)sc2cc1OC | inactive | –
CN(CC(=O)Nc1ccc(SC(F)F)cc1)C1CCCCC1 | inactive | –
CCc1ccc2c(CC(=O)Nc3cccc(S(=O)(=O)N4CCOCC4)c3)coc2c1 | inactive | –
CCCc1cnc(Nc2nc(C(N)Cc3ccc(OC)cc3)cs2)nc1 (configuration not stated) | inconclusive: 29.1 µM [cytotoxic, single point] | –
CCOC(=O)C1CCN(Cc2ccc(OC)c(OCc3ccccc3)c2)CC1 | inconclusive: 18.4 µM [cytotoxic, single point] | –
Cn1cc(SCC(=O)Nc2nc3ccccc3s2)c2ccccc21 | inconclusive: 20.6 µM [cytotoxic, single point] | –
Cc1c(OCc2ccccc2)cccc1OCc1ccccc1 | inconclusive: 29.1 µM [rising, single point] | –
COc1cccc(/C=C/c2nccc3ccccc23)c1OC | – | inconclusive: 0%
O=C(NC1CCCN(Cc2ccc(Cl)cc2)C1)c1ccccc1-c1ncc[nH]1 (configuration not stated) | inactive | –
COc1cccc(C(C)(O)c2nc(-c3ccc(S(C)(=O)=O)cc3)cs2)c1 (configuration not stated) | active: 18.4 µM | –
COc1cc(OC)cc(C(=O)Nc2nnc(SCC(=O)NCC3CCCO3)s2)c1 (configuration not stated) | inconclusive: 7.31 µM [rising, partial curve] | –
CCCCCCCCS(=O)c1sc2nc(C)cc(C)c2c1N (configuration not stated) | inconclusive: 23.1 µM [cytotoxic, partial curve, poor fit] | –
OC(COc1ccc(Cl)cc1)CN1CCN(c2ccccn2)CC1 (configuration not stated) | inactive | –
CCC(=O)O/N=C(\N)c1ccc(Oc2cc(C)c(Cl)c(C)c2)c([N+](=O)[O-])c1 | – | inconclusive: -4.47%
Cc1ccccc1S(=O)(=O)NNC(=O)C(=O)NNc1ccccn1 | inconclusive: 25.9 µM [cytotoxic, partial curve, poor fit] | –
Cc1cccc(C)c1OCC(O)CNC(C)C (configuration not stated) | inactive | –
COc1ccc(CC(=O)NCCc2csc(-c3cccc(F)c3)n2)cc1OC | inactive | –
Cc1ccc(-n2nnnc2Sc2nc([N+](=O)[O-])nn2C)c(C)c1 | inconclusive: 23.1 µM [cytotoxic, single point] | –
COc1ccc(Cl)cc1NC(=O)CCNC(=O)Cn1ccc2ccccc2c1=O | inconclusive: 32.6 µM [cytotoxic, single point] | –
Cc1ccc(S(=O)(=O)Nc2cc3c(C(=O)OCc4ccccc4)c(C)oc3c3ccccc23)cc1 | inactive | –
S=C(NCc1ccco1)Nc1ccc(Cl)cn1 | inactive | –
CCn1cc(C(=O)O)c(=O)c2cc(F)c(N3CCN(S(=O)(=O)c4ccc(NC(=O)OC)cc4)CC3)cc21 | inconclusive: 2.91 µM [rising, partial curve, poor fit] | –

One compound at a time, from the list above:
OC(COc1ccc(Cl)cc1)CN1CCN(c2ccccn2)CC1 (configuration not stated) as listed: Potency: inactive
Cc1ccc(NC(=O)c2cc3cccc([N+](=O)[O-])c3[nH]2)cc1 as listed: Potency: inactive
